One substance from PMC7327498, “Structural basis of semaphorin‐plexin cis interaction” (The EMBO Journal, 2020) can be followed below.

By UniProt entry, the sequences of proteins in these tests, tags left out. Where a name states a change or a piece, a line headed by the entry shows the natural chain unless it says otherwise.
UniProt Q24322: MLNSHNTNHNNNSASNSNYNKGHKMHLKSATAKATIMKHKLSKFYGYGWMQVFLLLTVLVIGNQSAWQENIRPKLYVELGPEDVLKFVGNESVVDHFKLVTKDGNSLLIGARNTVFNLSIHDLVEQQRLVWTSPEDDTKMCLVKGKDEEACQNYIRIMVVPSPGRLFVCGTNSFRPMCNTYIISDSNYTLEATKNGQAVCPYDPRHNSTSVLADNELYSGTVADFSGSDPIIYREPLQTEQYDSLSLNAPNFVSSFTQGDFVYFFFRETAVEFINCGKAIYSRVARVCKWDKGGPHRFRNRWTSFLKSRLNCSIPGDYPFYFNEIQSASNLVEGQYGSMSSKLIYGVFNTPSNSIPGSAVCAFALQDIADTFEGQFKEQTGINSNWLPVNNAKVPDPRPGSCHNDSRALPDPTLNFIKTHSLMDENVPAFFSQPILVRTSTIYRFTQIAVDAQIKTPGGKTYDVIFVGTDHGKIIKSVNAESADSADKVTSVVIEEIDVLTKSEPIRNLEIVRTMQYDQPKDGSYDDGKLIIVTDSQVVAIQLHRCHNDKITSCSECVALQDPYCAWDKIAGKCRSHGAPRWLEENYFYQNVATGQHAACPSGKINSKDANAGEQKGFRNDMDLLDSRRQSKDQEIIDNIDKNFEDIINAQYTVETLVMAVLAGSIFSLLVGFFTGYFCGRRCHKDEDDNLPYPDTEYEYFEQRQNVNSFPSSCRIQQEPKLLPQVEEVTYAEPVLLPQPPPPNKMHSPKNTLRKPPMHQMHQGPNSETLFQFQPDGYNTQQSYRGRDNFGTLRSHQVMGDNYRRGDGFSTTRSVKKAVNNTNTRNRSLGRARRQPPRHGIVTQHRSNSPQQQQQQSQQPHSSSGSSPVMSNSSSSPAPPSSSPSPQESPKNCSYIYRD

The assay concerns the target T1, PlexA‐mClover (Drosophila melanogaster, UniProt Q9V491 28-1311).
T1 construct: Plexin A (PlexA), Drosophila melanogaster, residues 28–1,311: ectodomain followed by a transmembrane segment; not the purified PlexA‐mClover (residues 67–1,274) used as donor-only control in solution; also called FRET donor PlexA‐mClover; source: COS-7, transiently transfected, on live cells; not shown: mClover, C-terminal, kept
T1 sequence (looked up): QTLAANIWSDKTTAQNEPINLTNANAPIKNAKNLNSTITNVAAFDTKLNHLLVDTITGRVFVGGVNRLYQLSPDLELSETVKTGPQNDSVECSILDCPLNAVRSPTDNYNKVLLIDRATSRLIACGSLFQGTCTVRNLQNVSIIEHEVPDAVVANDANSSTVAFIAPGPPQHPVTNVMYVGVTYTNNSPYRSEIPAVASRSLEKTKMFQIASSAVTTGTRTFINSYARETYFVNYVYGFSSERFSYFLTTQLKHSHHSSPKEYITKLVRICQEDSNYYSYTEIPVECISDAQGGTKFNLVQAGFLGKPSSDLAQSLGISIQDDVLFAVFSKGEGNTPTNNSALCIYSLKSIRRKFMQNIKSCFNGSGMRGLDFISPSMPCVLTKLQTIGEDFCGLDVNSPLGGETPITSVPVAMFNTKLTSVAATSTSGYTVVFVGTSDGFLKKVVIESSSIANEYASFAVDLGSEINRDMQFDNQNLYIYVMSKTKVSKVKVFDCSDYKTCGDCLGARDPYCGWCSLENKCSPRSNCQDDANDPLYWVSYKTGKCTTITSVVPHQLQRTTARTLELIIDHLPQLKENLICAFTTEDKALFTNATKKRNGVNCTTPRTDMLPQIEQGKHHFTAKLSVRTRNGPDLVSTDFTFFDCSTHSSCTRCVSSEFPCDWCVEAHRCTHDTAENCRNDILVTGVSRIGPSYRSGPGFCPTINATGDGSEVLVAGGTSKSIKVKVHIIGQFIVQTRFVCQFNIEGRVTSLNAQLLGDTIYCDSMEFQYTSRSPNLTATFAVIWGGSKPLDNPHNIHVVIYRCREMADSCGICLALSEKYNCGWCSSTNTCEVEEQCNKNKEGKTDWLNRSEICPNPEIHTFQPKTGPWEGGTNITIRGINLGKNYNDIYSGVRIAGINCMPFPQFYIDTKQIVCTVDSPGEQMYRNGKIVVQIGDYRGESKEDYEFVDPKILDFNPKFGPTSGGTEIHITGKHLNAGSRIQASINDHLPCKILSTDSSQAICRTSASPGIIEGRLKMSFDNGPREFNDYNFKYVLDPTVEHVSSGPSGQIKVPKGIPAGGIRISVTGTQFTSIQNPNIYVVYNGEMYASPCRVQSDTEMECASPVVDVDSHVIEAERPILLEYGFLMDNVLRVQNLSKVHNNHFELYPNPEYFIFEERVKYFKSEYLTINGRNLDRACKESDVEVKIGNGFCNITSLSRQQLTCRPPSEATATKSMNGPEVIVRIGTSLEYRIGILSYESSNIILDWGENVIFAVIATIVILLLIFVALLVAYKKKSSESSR
Description: FRET or BRET; FRET-FLIM in live COS-7 cells transiently co-transfected with PlexA‐mClover (donor) and semaphorin‐mRuby2 (acceptor), cis on one cell surface, 37°C; donor alone τav 2.72 ± 0.03 ns. (Bioluminescence resonance energy transfer reports proximity on the nanometre scale.)

These are yes or no findings as the source states them, for the method shown. In cells and extracts the contact can be indirect.

Consider “Sema1a‐mRuby2 (from UniProt Q24322) (ligand)”, for which the binding entry is “no binding”.
